The subject of the data set is GST-OsMADS1lgy3 (Oryza sativa). Kind of data set: EMSA. The note with it: affinity stated unaffected by C domain variation, 10x and 50x unlabeled probe as competitor; LightShift Chemiluminescent EMSA Kit (Thermo 20148); pH and temperature not stated; recombinant protein; protein details: N-terminal GST (pGEX-4T-1); label: biotin. (Mobility shift assays separate free from complexed probe on a gel.)

The exact form of at least one protein or probe is not confirmed.

As to “AGGCAGTATCTATCTATTTATTGCGTATAAACTAAAT (double strand) [MADS55-EMSA-probe]”, the binding result was “binds”.

The values above are taken from PMC5829230, “G-protein βγ subunits determine grain size through interaction with MADS-domain transcription factors in rice”.
